Data taken from PubChem BioAssay AID912, deposited by NCATS (2007).

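A cell-based FRET test of anthrax lethal toxin entry, tracked through the 460 nm emission signal; the cell line is not named here.
Each compound was tested as a concentration series from about 0.0005 to 40 µM.
The number is the fitted AC50 of the 460 nm signal alone; lower values mean a more potent effect. A falling signal goes with compounds filed as inhibitors or cytotoxic, a rising one with activators or fluorescent compounds (inferred from the filed classes).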

Values are in µM.
Common to all entries: measured here: 460 nm channel.
Part of the compounds only, not a random draw; the main read-out is not listed here.
Potencies fitted to partial, single-point or poorly fitting curves are rough.
The first word of each remark tells which way the curve ran; it can be opposite to the aim of the assay.

| structure | AC50 (µM) | curve |
|---|---|---|
| `Cc1cc(Nc2ccc(Br)cc2)n2nc(C)nc2n1` | 3.162 | falling, single point |
| `CCOc1ccc(N(CC(=O)Nc2ccccc2C)S(=O)(=O)c2c(C)noc2C)cc1` | 1.259 | falling, partial curve |
| `CCCCCCN(C(=O)CCCCCN1C(=O)NC(c2ccc(C(C)(C)C)cc2)C(C(=O)OCc2ccccc2)=C1C)C(C(=O)NCCCC)c1ccc(OCC(=O)OC)c(C(=O)OC)c1` (centres unmarked) | 5.012 | rising, partial curve |
| `COc1ccc(CNC(=O)CN(C(=O)CCC(=O)Nc2ccccn2)c2ccccc2OC)cc1` | 7.943 | rising, partial curve |
| `O=C(O)[C@@H]1[C@@H](C(=O)NCc2ccncc2)[C@@H]2C=C[C@@H]1O2` | 1 | falling, partial curve, poor fit |
| `COc1ncc2nc(-c3cn(C)c4ccccc34)c(=O)n(-c3ccccc3)c2n1` | 12.59 | rising, partial curve |
| `CCOC(=O)CNc1c(-c2ccc(O)cc2)nc2ccc(Cl)cn12` | 12.59 | rising, partial curve, poor fit |
| `Cc1cc(C(=O)CSc2nnnn2-c2ccc(O)cc2)c(C)n1Cc1ccc2c(c1)OCO2` | 31.62 | falling, single point |
| `COCCOC(=O)C1=C(C)N=c2s/c(=C\c3cccs3)c(=O)n2C1c1cccs1` (centres unmarked) | 1.585 | falling, full curve |
| `Cc1cc(/C=N/n2cnnc2)c(C)n1-c1ccc(OCc2ccc(F)cc2)cc1` | 12.59 | falling, partial curve |
| `CS(=O)(=O)N1CCC[C@@]2(CCN(c3ccccn3)C2)C1` | 3.981 | rising, single point |
| `CCn1c(N2CCC(Cc3ccccc3)CC2)nc2c1c(=O)[nH]c(=O)n2C` | 31.62 | falling, single point |
| `COc1ccccc1CNc1cc(-c2ccccc2CN(C)C)ncn1` | 3.162 | falling, partial curve |
| `O=C(Nc1ccc(N2CCCCC2)c(Cl)c1)c1cccnc1` | 0.631 | falling, full curve, poor fit |
| `C/C(=N\O)C(C)/[N+]([O-])=C/c1nc(C)c(C)n1O` (centres unmarked) | 1 | falling, full curve, poor fit |
| `Nc1nc(N2CCCCC2)nc2ccccc12` | 31.62 | falling, partial curve |
| `CC1Cc2nc(SCC(=O)OCc3ccccc3)n(C)c(=O)c2S1` (centres unmarked) | 5.012 | rising, single point |
| `O=C(NCc1cccnc1)c1cc(-c2ccccc2)on1` | 31.62 | falling, single point |
| `COc1cccc(C2=CC(c3ccc(N(C)C)cc3)n3ncnc3N2)c1` (centres unmarked) | 15.85 | rising, partial curve |
| `CCCn1c(-c2ccc(F)cc2)nc2c(NC3CCN(Cc4ccccc4)C3)nc(C)nc21` (centres unmarked) | 31.62 | falling, single point |
| `O=C(c1cc(C(F)(F)F)cc(C(F)(F)F)c1)N1CCC2(CC1)CN(Cc1ccncc1)C2` | 10 | rising, partial curve |
| `CC(=O)ON(C(C)=O)S(=O)(=O)c1ccc(Cl)cc1` | 12.59 | falling, single point |
| `C=CCc1cccc(CNc2c(C)n(C)n(-c3ccccc3)c2=O)c1O` | 0.01 | rising, full curve, poor fit |
| `CCOP(=O)(c1ccc(N(C)C)cc1)C(O)c1ccc(Cl)cc1` (centres unmarked) | 31.62 | falling, partial curve |
| `O=C(CN(C1CC1)S(=O)(=O)c1ccc(S(=O)(=O)NC2CCCCC2)cc1)Nc1ccccc1` | 12.59 | falling, partial curve |
| `CCC(C)[C@H](NC(=O)Nc1cccc(OC)c1)C(=O)OC` (some centres unmarked) | 2.512 | falling, single point |
| `Cc1cc(C)c(C#N)c(SCC(=O)c2cccs2)n1` | 7.943 | rising, partial curve |
| `c1ccc(-c2cccc(N3CC[C@@]4(CCCNC4)C3)c2)cc1` | 25.12 | falling, single point |
| `O=S(=O)(NCc1csc(-c2ccccc2)n1)c1ccc(Cl)s1` | 15.85 | falling, partial curve |
| `Cc1n[nH]c(C)c1S(=O)(=O)N1CCCC(C(=O)N2CCc3ccccc32)C1` (centres unmarked) | 0.3981 | falling, full curve, poor fit |